Test results: US8623405B2, “Finely divided composition containing poorly water soluble substance” (Takeda Pharmaceutical Company Limited, priority 2005, dated 2014)
In brackets after ≈: the same amount, converted by molar mass.

Assay: physchem
Settings: 20 °C, aqueous with cosolvent or surfactant or cyclodextrin, thermodynamic from solid

COC(=O)C1=C(C)NC(C)=C(C(=O)OC)C1c1ccccc1[N+](=O)[O-] [nifedipine]
solubility: 264 µg/mL (≈ 762 µM)
